# PubChem BioAssay AID1224826 | NIAID, 2016
# Assay: 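Knock-downs that raise or lower Tnf reporter signal after endotoxin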 (primary screen)
# Cell system: RAW264.7 G9 macrophages from mouse bearing reporters for p65 (GFP) and the Tnf promoter (mCherry)
# Reagent: siRNA pool against mouse genes, 100 nM
# Duration: 16 h of LPS stimulation, after 2 days of siRNA transfection
# Conditions: bacterial lipopolysaccharide (Salmonella minnesota R595), 10 ng/ml
# Measured: 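Nuclear mCherry signal of the Tnf promoter reporter measured by imaging after background removal, scaled to each plate median and turned into robust z-scores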
# Direction: Tnf reporter robust z-score: higher = stronger Tnf promoter reporter signal after LPS; Tnf reporter intensity: higher = stronger Tnf promoter reporter signal
# Hit rule: 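Called active when robust z-score is at most -1.3, matching the median of the Tlr4 knock-down control, or over 3; control wells and wells with under 50 cells never active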
# Meaning of the calls: active = Tnf reporter clearly lowered or raised; inactive = no clear change in Tnf reporter
# Shown is an unselected part of about 17,000 reagents. In the full data, about 1,110 (6.6%) were called active. 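Active means lowered or raised reporter signal; replicate intensities are raw and not normalised per plate.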
Gene,PubChem SID,Tnf reporter robust z-score,fewer than 50 cells in well,"Tnf reporter intensity, replicate 1","Tnf reporter intensity, replicate 2",call
Or7g27 (olfactory receptor family 7 subfamily G member 27),SID315479950,-0.83,enough cells in well,56.4,103,inactive
Tmem50b (transmembrane protein 50B),SID315475530,-0.67,enough cells in well,118,141,inactive
Ern2 (endoplasmic reticulum to nucleus signalling 2),SID315470480,0.38,enough cells in well,239,181,inactive
Tbck (TBC1 domain containing kinase),SID315476811,4.36,enough cells in well,303,362,active
Tbck (TBC1 domain containing kinase),SID315480960,-0.12,enough cells in well,185,154,inactive
Pdlim4 (PDZ and LIM domain 4),SID315470748,-0.52,enough cells in well,196,152,inactive
Crispld2 (cysteine-rich secretory protein LCCL domain containing 2),SID315475640,3.5,enough cells in well,279,161,active
Spop (speckle-type BTB/POZ protein),SID315469435,1.51,enough cells in well,150,151,inactive
Yy1 (YY1 transcription factor),SID315470082,-0.92,enough cells in well,157,160,inactive
Gbp7 (guanylate binding protein 7),SID315478749,-1.43,enough cells in well,115,89.5,active
E130016E03RIK,SID315482033,-0.93,enough cells in well,130,77.1,inactive
Aadacl4fm1 (AADACL4 family member 1),SID315481795,-0.62,enough cells in well,148,143,inactive
A930002I21Rik (RIKEN cDNA A930002I21 gene),SID315476805,1.55,enough cells in well,254,241,inactive
Ccdc92 (coiled-coil domain containing 92),SID315477946,0.17,enough cells in well,206,165,inactive
Hdhd5 (haloacid dehalogenase like hydrolase domain containing 5),SID315477895,-0.85,enough cells in well,129,109,inactive
Or10n1 (olfactory receptor family 10 subfamily N member 1),SID315480174,-0.64,enough cells in well,159,82.4,inactive
Apobec2,SID315465467,-1.35,enough cells in well,88.4,95.7,active
Mlf2 (myeloid leukemia factor 2),SID315470757,0.05,enough cells in well,234,238,inactive
Or11h4 (olfactory receptor family 11 subfamily H member 4),SID315471703,,fewer than 50 cells per well; well left out of calls,89.1,52.1,inactive
Srpx (sushi-repeat-containing protein),SID315470906,-0.36,enough cells in well,227,204,inactive
Serpinc1,SID315465530,1.96,enough cells in well,458,361,inactive
Mapk7 (mitogen-activated protein kinase 7),SID315470242,0.36,enough cells in well,206,193,inactive
Ints10 (integrator complex subunit 10),SID315474149,,fewer than 50 cells per well; well left out of calls,126,115,inactive
Bag1 (BCL2-associated athanogene 1),SID315465593,-0.38,enough cells in well,153,104,inactive
"Cacnb2 (calcium channel, voltage-dependent, beta 2 subunit)",SID315465716,-0.61,enough cells in well,136,133,inactive
Mtx1 (metaxin 1),SID315468027,0.63,enough cells in well,320,249,inactive
Irf3 (interferon regulatory factor 3),SID315471154,-0.81,enough cells in well,182,104,inactive
"H2-D4 (histocompatibility 2, D region locus 4)",SID315467105,-1.27,enough cells in well,181,66.4,inactive
Defb50 (defensin beta 50),SID315481851,-1.16,enough cells in well,124,81.2,inactive
Or4f47 (olfactory receptor family 4 subfamily F member 47),SID315480122,1.27,enough cells in well,240,185,inactive
Or5ae1 (olfactory receptor family 5 subfamily AE member 1),SID315480095,-0.29,enough cells in well,178,98.5,inactive
Or51a24 (olfactory receptor family 51 subfamily A member 24),SID315479949,,fewer than 50 cells per well; well left out of calls,24.2,49.1,inactive
Sec14l1 (SEC14-like lipid binding 1),SID315474865,0.32,enough cells in well,285,259,inactive
"Pym1 (PYM homolog 1, exon junction complex associated factor)",SID315475578,1,enough cells in well,227,207,inactive
Ophn1 (oligophrenin 1),SID315476050,0.51,enough cells in well,267,225,inactive

Active calls (from the list above):
Gene,PubChem SID,Tnf reporter robust z-score,fewer than 50 cells in well,"Tnf reporter intensity, replicate 1","Tnf reporter intensity, replicate 2",call
Tbck (TBC1 domain containing kinase),SID315476811,4.36,enough cells in well,303,362,active
Crispld2 (cysteine-rich secretory protein LCCL domain containing 2),SID315475640,3.5,enough cells in well,279,161,active
Gbp7 (guanylate binding protein 7),SID315478749,-1.43,enough cells in well,115,89.5,active
Apobec2,SID315465467,-1.35,enough cells in well,88.4,95.7,active

The list goes on:
Gene,PubChem SID,Tnf reporter robust z-score,fewer than 50 cells in well,"Tnf reporter intensity, replicate 1","Tnf reporter intensity, replicate 2",call
Vim (vimentin),SID315470004,0.85,enough cells in well,296,295,inactive
Ggnbp2 (gametogenetin binding protein 2),SID315478069,1.81,enough cells in well,160,246,inactive
Or51g2 (olfactory receptor family 51 subfamily G member 2),SID315480707,0.23,enough cells in well,115,126,inactive
Or9i16 (olfactory receptor family 9 subfamily I member 16),SID315480284,0.59,enough cells in well,227,137,inactive
Cst8 (cystatin 8 (cystatin-related epididymal spermatogenic)),SID315466182,2,enough cells in well,299,306,inactive
"Il5ra (interleukin 5 receptor, alpha)",SID315467459,0.29,enough cells in well,276,156,inactive
A930018P22Rik (RIKEN cDNA A930018P22 gene),SID315473472,1.33,enough cells in well,224,248,inactive
"Senp8 (SUMO peptidase family member, NEDD8 specific)",SID315474259,-0.54,enough cells in well,76.1,90.1,inactive
Acin1 (apoptotic chromatin condensation inducer 1),SID315471405,-1.17,enough cells in well,104,100,inactive
"Rexo1 (REX1, RNA exonuclease 1)",SID315472725,,fewer than 50 cells per well; well left out of calls,131,99.6,inactive
G0s2 (G0/G1 switch gene 2),SID315466781,-1.05,enough cells in well,156,94.6,inactive
"Scn10a (sodium channel, voltage-gated, type X, alpha)",SID315469114,-0.09,enough cells in well,310,175,inactive
Als2cl (ALS2 C-terminal like),SID315479283,0.35,enough cells in well,226,237,inactive
Cpt1c (carnitine palmitoyltransferase 1c),SID315475534,0.44,enough cells in well,224,189,inactive
Ccdc32 (coiled-coil domain containing 32),SID315480847,-0.08,enough cells in well,251,151,inactive
Or2g7 (olfactory receptor family 2 subfamily G member 7),SID315480157,-0.42,enough cells in well,174,90.3,inactive
Mbd3l2 (methyl-CpG binding domain protein 3-like 2),SID315479215,0.52,enough cells in well,232,165,inactive
H2bc21 (H2B clustered histone 21),SID315481048,-1.46,enough cells in well,134,62,active
"Pabpn1 (poly(A) binding protein, nuclear 1)",SID315471177,-1.64,enough cells in well,105,83.6,active
Lmbr1l (limb region 1 like),SID315475047,-0.52,enough cells in well,210,168,inactive
Cpsf4l (cleavage and polyadenylation specific factor 4-like),SID315470999,-0.58,enough cells in well,117,174,inactive
4930429B21Rik (RIKEN cDNA 4930429B21 gene),SID315473106,,fewer than 50 cells per well; well left out of calls,358,116,inactive
Pth2 (parathyroid hormone 2),SID315477019,-0.23,enough cells in well,99.1,93.9,inactive
Garin5b (golgi associated RAB2 interactor family member 5B),SID315479707,,fewer than 50 cells per well; well left out of calls,248,119,inactive
Eef2k (eukaryotic elongation factor-2 kinase),SID315466446,0.66,enough cells in well,275,163,inactive
"Nsmce2 (NSE2/MMS21 homolog, SMC5-SMC6 complex SUMO ligase)",SID315473550,0.85,enough cells in well,369,90.3,inactive
"Serpine2 (serine (or cysteine) peptidase inhibitor, clade E, member 2)",SID315469418,-0.39,enough cells in well,262,171,inactive
Npsr1 (neuropeptide S receptor 1),SID315481058,0.6,enough cells in well,238,219,inactive
Adam3 (ADAM metallopeptidase domain 3),SID315465292,-0.08,enough cells in well,233,151,inactive
Dhrs13 (dehydrogenase/reductase 13),SID315474057,0.17,enough cells in well,250,78.5,inactive
Ankrd7 (ankyrin repeat domain 7),SID315475084,-0.24,enough cells in well,122,147,inactive
Pxmp2 (peroxisomal membrane protein 2),SID315468836,0.31,enough cells in well,383,198,inactive
Pxk (PX domain containing serine/threonine kinase),SID315478209,-0.08,enough cells in well,163,183,inactive
Rab5if (RAB5 interacting factor),SID315472993,,fewer than 50 cells per well; well left out of calls,114,48.4,inactive
BC002118 (retired record),SID315475698,0.35,enough cells in well,216,248,inactive
Lect2 (leukocyte cell-derived chemotaxin 2),SID315467742,0.62,enough cells in well,233,159,inactive
Or1aa2 (olfactory receptor family 1 subfamily AA member 2),SID315479983,-0.42,enough cells in well,193,76.5,inactive
Dgcr2 (DiGeorge syndrome critical region gene 2),SID315466319,0.71,enough cells in well,260,283,inactive
Cnih2 (cornichon family AMPA receptor auxiliary protein 2),SID315466029,0.08,enough cells in well,166,185,inactive
Mcm3ap,SID315471218,-0.75,enough cells in well,200,151,inactive
